Reference: patent publication US20250073355A1, “CD44-BINDING PEPTIDE REAGENTS AND METHODS” (THE REGENTS OF THE UNIVERSITY OF MICHIGAN, priority 2021, published 2025)

System: human HCC specimens
Assay: Peptide validation in human HCC specimens ex vivo (immunofluorescence)
Procedure: A tissue microarray (TMA) of human HCC was generated to investigate specific binding by the CD44 peptide to human HCC. Formalin-fixed, paraffin-embedded (FFPE) sections of human liver were obtained from the archived tissue bank in the Department of Pathology. The specimens were washed 3× in xylene for 3 min, 100% ethanol for 3 min, 95% ethanol for 3 min, 70% ethanol for 3 min, rinsed in H2O for 2 min. Antigen unmasking was performed by boiling the slides in 10 mM sodium citrate buffer with 0.05% Tween at pH 6.0 for 15 min. The slides were cooled to RT, and were washed in H2O 3× for 5 min. Blocking was performed with DAKO protein blocking agent (X0909, DAKO) for 1 hour at RT. The peptides at 1 μM concentration were incubated for 10 min at RT. The sections were washed 3× in PBST for 3 min, and incubated with 400 μL at 1:500 dilution of recombinant anti-CD44 (#ab189524, Abcam) overnight at 4° C. The sections were then washed 3× in PBST for 5 min. A 1:500 dilution of AF488-labeled secondary antibody (goat anti rabbit Alexa Fluor®488) was added to each section and incubated for 1 hour at RT. The secondary antibody solution was removed and washed 3× with PBST for 5 min. The sections were then mounted with ProLong Gold reagent containing DAPI (Invitrogen). The fluorescence images of each specimen were collected using confocal microscopy (SP8, Leica), and the mean fluorescence intensity from each image was measured from 3 boxes with dimensions of 20×20 μm^2 using custom MATLAB software. Regions of saturated image intensities were avoided.

SMILES: CC(C)C[C@H](NC(=O)[C@H](Cc1ccc(O)cc1)NC(=O)[C@H](CO)NC(=O)[C@H](Cc1c[nH]c2ccccc12)NC(=O)CNC(=O)[C@H](CCCCN)NC(=O)[C@@H](N)Cc1c[nH]c2ccccc12)C(=O)N[C@@H](Cc1c[nH]c2ccccc12)C(=O)N[C@H](C(=O)N[C@@H](CCC(N)=O)C(=O)N[C@@H](CCC(N)=O)C(=O)N[C@@H](C)C(=O)NCC(=O)NCC(=O)NCC(=O)N[C@@H](CO)C(=O)N[C@@H](CSC1CC(=O)N(CCNC(=O)CCCCCN2C(=CC=C3CCCC(C=CC4=[N+](CCCCS(=O)(=O)[O-])c5ccc(S(=O)(=O)O)cc5C4(C)C)=C3Oc3ccc(S(=O)(=O)O)cc3)C(C)(C)c3cc(S(=O)(=O)O)ccc32)C1=O)C(N)=O)[C@@H](C)O (stereo partly drawn) [WKG*-IRDye800]
- AUC (ROC) (distinguish HCC from cirrhosis): 0.79
- sensitivity (ROC) (distinguish HCC from cirrhosis): 87%
- specificity (ROC) (distinguish HCC from cirrhosis): 69%
- AUC (ROC) (distinguish HCC from non-HCC): 0.87
- sensitivity (ROC) (distinguish HCC from non-HCC): 87%
- specificity (ROC) (distinguish HCC from non-HCC): 79%
